# In patent US9200046B2, “Reporter system for high throughput screening of compounds and uses thereof” (priority 2011, dated 2015):
# Sequences of proteins named here, by UniProt entry; tags and fusion partners are left off.
# UniProt Q14145, whole entry: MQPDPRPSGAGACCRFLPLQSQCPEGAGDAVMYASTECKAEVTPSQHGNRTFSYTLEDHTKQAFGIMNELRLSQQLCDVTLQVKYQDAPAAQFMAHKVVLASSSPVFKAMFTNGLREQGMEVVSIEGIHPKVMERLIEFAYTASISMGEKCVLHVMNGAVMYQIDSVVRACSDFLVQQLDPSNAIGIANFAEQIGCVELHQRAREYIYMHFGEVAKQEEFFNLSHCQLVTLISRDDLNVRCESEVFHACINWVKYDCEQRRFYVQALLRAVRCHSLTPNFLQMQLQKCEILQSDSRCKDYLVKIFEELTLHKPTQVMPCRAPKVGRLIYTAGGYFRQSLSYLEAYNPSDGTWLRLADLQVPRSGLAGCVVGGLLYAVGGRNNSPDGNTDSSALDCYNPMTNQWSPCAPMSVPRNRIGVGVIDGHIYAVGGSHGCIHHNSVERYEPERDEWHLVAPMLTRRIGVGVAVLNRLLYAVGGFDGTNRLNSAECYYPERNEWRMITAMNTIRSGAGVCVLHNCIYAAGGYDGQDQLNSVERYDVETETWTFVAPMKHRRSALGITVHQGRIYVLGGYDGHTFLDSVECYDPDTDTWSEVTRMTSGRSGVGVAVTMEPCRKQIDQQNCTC
# Structures can show the parent of a compound that is named as a salt.
# Molecular target: Nrf2-Keap1 complex (Homo sapiens, UniProt Q14145)
# Assay: cell-based
# Conditions: 3 h
compound,measurement,setting,value
"CN(C)CCCN1c2ccccc2CCc2ccc(Cl)cc21 [CLOMIPRAMINEHYDROCHLORIDE, reference compound]",activation at 16 µM,read-out: Activation 100 nL,39%
same,activation at 32 µM,read-out: Activation 200 nL,0%
